Measured values from PubChem BioAssay AID504444 (National Center for Advancing Translational Sciences (NCATS), 2011).
The campaign covered roughly 360,000 compounds. About 7,500 (2.1%) were called active. This list was built around the results that the source calls inconclusive (neither active nor inactive); the mix of calls is not that of the screen. The call rests on the fitted dose curve; in most records, active means well fitted inhibition curve with a large enough effect; inconclusive means small, poorly fitted or top-dose-only effect, or effect the other way; inactive means flat fitted curve, though single readings scatter. Potencies beside an inconclusive call are fits to weak or partial responses and may not hold up.

assay: Nrf2 qHTS screen for inhibitors; settings: A549 ARE-Fluc reporter, luciferase luminescence, 18-24 h; series mostly up to 46 µM; further: nearly all actives have a fitted effect of over 60% in size
In short: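 Concentration-response testing used A549 ARE_Fluc cells at 5000 cells/well. Following an 18-24 h compound incubation, viability was read by fluorescence (Ex 405/Em 525) and luciferase output by luminescence.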
Potency means the concentration at half of the fitted maximal effect.

SMILES	Potency
CN(C)c1ccc(/C=N/NC(=O)c2ccc3c(c2)OCO3)cc1	inconclusive: 1.3 µM [activator, full curve, poor fit]
CCc1ccccc1N1CC(c2nc3ccccc3n2CCCCOc2ccccc2)CC1=O (configuration not stated)	inconclusive: 29.1 µM [falling, single point]
Cc1ccc(NS(=O)(=O)c2ccc(CCC(=O)NCCO)cc2)cc1	inconclusive: 32.6 µM [falling, single point]
CCN(CC)CCNC(=O)c1ccc2c(=O)n3nc(Nc4ccccc4OC)sc3nc2c1	inconclusive: 23.1 µM [falling, single point]
CCc1nc2ccccc2c(C(=O)OCC(=O)Nc2cccc(S(=O)(=O)NC3=NCCCCC3)c2)c1C	active: 16.4 µM
O=S1(=O)c2ccccc2N(Cc2cccc(Cl)c2)c2ccccc21	inconclusive: 23.1 µM [activator, partial curve]
Cc1cc(C(=O)Nc2ccc(F)cc2C)n(-c2ccccc2)n1	inconclusive: 29.1 µM [activator, single point]
COc1cccc(CNC(=O)C2CCN(c3nnc(-n4c(C)ccc4C)s3)CC2)c1OC	inactive
CCn1c(NCc2cccc(OC)c2OC)nc2ccccc21	inconclusive: 29.1 µM [activator, single point]
Cc1ccc(Cl)cc1N(C(=O)c1csnn1)C(C(=O)NC1CCCC1)c1ccco1 (configuration not stated)	inactive
Nc1cc(N)c2c(c1)C(=O)c1ccccc1-2	inconclusive: 20.6 µM [activator, partial curve, poor fit]
COc1ccc(S(=O)(=O)N2CCN(CCCOc3ccc(F)cc3)CC2)cc1OC	active: 23.1 µM
Cc1cc2cc(CN(CCN3CCOCC3)C(=O)Nc3ccccc3F)c(=O)[nH]c2cc1C	inconclusive: 14.6 µM [falling, partial curve, poor fit]
O=C(c1ccco1)N1N=C2CCCCCC2C1(O)C(F)(F)F (configuration not stated)	inactive
COc1ccc(-c2csc(N(C)C(=O)c3ccco3)n2)cc1	inactive
COc1cccc(C(=O)Nc2cccc(C(=O)NCC(C)C)c2)c1	inactive
Cc1cc(C)c(C#N)c(SCC(=O)c2cc(C)n(CCc3ccccc3)c2C)n1	inconclusive: 18.4 µM [falling, single point]
CCOc1ccc(CCNC(=O)c2ccc(N3CCCC3=O)cc2)cc1OCC	inconclusive: 29.1 µM [falling, single point]
CN(C)CCNC(=O)c1cccc2[nH]c(-c3ccncc3)nc12	inconclusive: 20.6 µM [falling, single point]
Cc1c(C(=O)N2CCN(c3ccccc3)CC2)sc2nc3n(c(=O)c12)CCC3	inconclusive: 16.4 µM [falling, single point]
CCc1ccc(S(=O)(=O)c2nnn3c2nc(NC(C)C)c2sccc23)cc1	inconclusive: 29.1 µM [falling, single point]
Cc1ccc(OCc2cc(C(=O)N3CCC(Oc4cccnc4)CC3)no2)cc1C	inactive
CCOC(=O)C1CCN(C(=O)CNC(=O)c2nn(-c3ccc(OC)cc3OC)c(=O)c3ccccc23)CC1	inconclusive: 25.9 µM [activator, partial curve, poor fit]

Single entries from above:
Entry for Cc1c(C(=O)N2CCN(c3ccccc3)CC2)sc2nc3n(c(=O)c12)CCC3 under Potency: inconclusive: 16.4 µM [falling, single point]
Entry for Nc1cc(N)c2c(c1)C(=O)c1ccccc1-2 under Potency: inconclusive: 20.6 µM [activator, partial curve, poor fit]
Entry for CCN(CC)CCNC(=O)c1ccc2c(=O)n3nc(Nc4ccccc4OC)sc3nc2c1 under Potency: inconclusive: 23.1 µM [falling, single point]
Entry for Cc1cc2cc(CN(CCN3CCOCC3)C(=O)Nc3ccccc3F)c(=O)[nH]c2cc1C under Potency: inconclusive: 14.6 µM [falling, partial curve, poor fit]
Entry for CN(C)CCNC(=O)c1cccc2[nH]c(-c3ccncc3)nc12 under Potency: inconclusive: 20.6 µM [falling, single point]

(continued)

SMILES	Potency
Oc1ccc(Nc2nc(-c3ccccc3O)nc3ccccc23)cc1	inactive
CCOc1ccc(/C=N/NC2=NCCCCC2)cc1	inconclusive: 9.2 µM [activator, partial curve, poor fit]
COc1ccc(CC(=O)OCc2csc(CC(=O)Nc3ccc(C)cc3)n2)cc1	inactive
CCCCCCSc1ccc([C@H]2N[C@@](Cc3ccccc3)(C(=O)OC)[C@H]3C(=O)N(C)C(=O)[C@@H]23)cc1	inconclusive: 29.1 µM [falling, single point]
CC(C)c1csc(CN2CCC(n3nccc3NC(=O)Cc3ccccc3)CC2)n1	inactive
O=C(/C=C/c1ccccc1)Nc1sc2c(c1C(=O)O)CCC2	inconclusive: 29.1 µM [activator, single point]
COc1ccccc1N1CCN(CC(=O)Nc2ccccc2C(=O)NCCc2ccccc2)CC1	inactive
COc1cc(NC(=O)CSc2ncccc2C(=O)OC(C)C)cc(OC)c1	inconclusive: 1.84 µM [falling, partial curve, poor fit]
Cc1ccc2nc(CSc3nc(C)nc4c3oc3ccccc34)[nH]c2c1	active: 18.4 µM
Cc1cc(C(=O)NCc2ccccc2Cl)c2c(C)nn(-c3ccccc3)c2n1	inconclusive: 0.461 µM [falling, partial curve, poor fit]
O=C(c1ccc(S(=O)(=O)N2CCCCCC2)cc1)N1CCN(c2ccccn2)CC1	inconclusive: 29.1 µM [falling, single point]
O=C(O)c1ccccc1S(=O)(=O)CC(=O)N1CCCCC1	inconclusive: 8.2 µM [activator, partial curve, poor fit]
CCOC(=O)Nc1nnc(/C=C/c2ccc(OC)cc2)s1	inactive
Cc1cc(NC(=O)c2cc(-c3cccs3)on2)nn1Cc1ccc(Cl)cc1	inconclusive: 13 µM [falling, partial curve, poor fit]
COc1ccc(-c2nc(SCCOc3ccccc3Cl)n3[nH]c(=O)cc3n2)cc1	inconclusive: 32.6 µM [activator, single point]
CN1CCc2c(sc3nc(SCC(N)=O)n(-c4ccc(Cl)cc4)c(=O)c23)C1	inactive
Cc1ccc(C(=O)NCCCn2ccnc2)cc1[N+](=O)[O-]	inconclusive: 18.4 µM [falling, partial curve, poor fit]
CC(C)(C)CC(=O)O/N=C(\N)c1ccccn1	inconclusive: 0.164 µM [activator, full curve]
CCN1C(C(=O)c2ccccc2)=C(OC(=O)c2ccccc2OC)c2ccccc2S1(=O)=O	inconclusive: 20.6 µM [falling, single point]
Cc1cccc(-n2ncc3c(NC4CCCCC4)ncnc32)c1	inconclusive: 0.206 µM [activator, partial curve, poor fit]
Cc1ccc(C2=NN(S(C)(=O)=O)C(c3ccc4c(c3)OCO4)C2)cc1 (configuration not stated)	inconclusive: 1.03 µM [activator, full curve]
Cc1nn(C)cc1[C@@H]1C[C@H]2CN(Cc3cccc(Cl)c3)C(=O)[C@]23CCCN13	inactive
COc1cc2c(cc1OC)-c1cc(NC3CCCCC3)nc(=O)n1CC2	inactive

SMILES	Potency
CSCC[C@H](NC(=O)N1CCn2c1nc1ccccc12)C(=O)NCc1ccc2c(c1)OCO2	inconclusive: 7.31 µM [activator, partial curve]
COc1ccc(Cl)cc1NC(=O)N1CCN(c2ccccc2OC)CC1	inconclusive: 9.2 µM [falling, partial curve, poor fit]
S=C(c1ccc(-c2ccccc2Cl)o1)N1CCOCC1	inconclusive: 13 µM [activator, partial curve, poor fit]
O=C(Nc1cccs1)Nc1ccc(Br)cc1F	inactive
CCOc1ccc(N(CC(=O)N2CCCCC2)S(=O)(=O)c2ccc(Cl)cc2)cc1	inconclusive: 29.1 µM [falling, single point]
O=C1NC(c2cccc3ccccc23)Nc2ccc(Cl)cc21 (configuration not stated)	inconclusive: 2.59 µM [activator, partial curve, poor fit]
Cc1ccccc1NC(=O)c1ccc(COc2ccc3c(C)cc(=O)oc3c2)cc1	inconclusive: 8.2 µM [falling, partial curve]
Clc1ccccc1CSc1nc2ccncc2[nH]1	inconclusive: 10.3 µM [activator, partial curve]
COc1cccc(COC(=O)c2c(C)nn(-c3ccccc3)c2Cl)c1OC	inconclusive: 29.1 µM [falling, partial curve, poor fit]
Cc1ccc(NC(=O)CSc2nc3ccccc3nc2N2CCOCC2)cc1	inconclusive: 20.6 µM [falling, single point]
Cc1ccc(-c2cc(C(=O)N/N=C/C(Br)=C/c3ccccc3)n[nH]2)o1	inconclusive: 32.6 µM [falling, single point]
COc1cc2nc(NCc3ccc(C)cc3)n3nc(-c4ccccc4)nc3c2cc1OC	inactive
Cc1ccc(C(c2nnnn2Cc2cccs2)N2CCN(Cc3ccc4c(c3)OCO4)CC2)cc1 (configuration not stated)	inconclusive: 9.2 µM [falling, single point]
CC(=O)c1c(C)[nH]c(C(=O)OCC(=O)Nc2cccc(S(=O)(=O)N3CCCC3)c2)c1C	active: 14.6 µM
Cc1cc(C)c([N+](=O)[O-])cc1-c1ccc(/C=N/NC(=O)c2nonc2N)o1	inconclusive: 4.61 µM [falling, full curve]
CCN(CC)P(=O)(Nc1ccc(SC(F)F)cc1)c1ccc(N(C)C)cc1NC(=O)c1ccco1 (configuration not stated)	inconclusive: 14.6 µM [falling, single point]
Cc1ccc(NC(=O)c2nc[nH]c2C(=O)NCCCNC(=O)c2[nH]cnc2C(=O)Nc2ccc(C)cc2)cc1	inactive
COc1ccc(C(=O)n2c(N)nc3ccccc32)cc1OC	inconclusive: 8.2 µM [activator, partial curve]
O=C(c1ccc(Cl)cc1)c1oc2ccccc2c1CS(=O)c1ccccc1 (configuration not stated)	inconclusive: 20.6 µM [falling, single point]
CCCCC(=O)Nc1ccc2c(c1)nc(CCN1CCN(c3ccccn3)CC1)n2C	inconclusive: 3.26 µM [falling, single point]
CCc1ccccc1NC(=O)C1CCCN(C(=O)c2cnn(-c3ccccc3)c2-n2cccc2)C1 (configuration not stated)	inactive
